PubChem BioAssay AID652272, Drosophila RNAi Screening Center | 2013

- Purpose: 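Genes whose knock-down decreases or increases Hedgehog reporter output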 (primary screen)
- System: Drosophila clone 8 (Cl8) cells
- Reagents: long dsRNA against Drosophila genes
- Measurement: 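Plate reader light from a firefly reporter under a ptc promoter fragment that responds to Hedgehog, with Renilla light as transfection reference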
- Direction: firefly Hh reporter signal: higher = more ptc reporter light; Renilla reference signal: higher = more Renilla control light
- Rule for the call: 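Called a hit if the two-replicate mean z-score lies below -2 or above +3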
- Calls: active = hit: reporter lowered or raised; inactive = not a hit
In all, the deposit lists about 21,000 reagents; below is a random part of those that have a named target and a result. Over the whole deposit, 503 (2.4%) got an active call. 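Raw plate light values, not normalised; calls rest on replicate z-scores that were not deposited; hits include reporter decreases as well as increases.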 Unmarked entries are inactive. Names joined by + are all predicted targets of the reagent. Not stated in the record: the amount of reagent, the time to read-out.

CG15445 (GeneID 33094) [DRSC20517] | firefly Hh reporter signal, replicate 1 = 53257; firefly Hh reporter signal, replicate 2 = 83145; Renilla reference signal, replicate 1 = 1493; Renilla reference signal, replicate 2 = 2192
AANATL7 (GeneID 31236) [DRSC18616] | firefly Hh reporter signal, replicate 1 = 81000; firefly Hh reporter signal, replicate 2 = 2.03e5; Renilla reference signal, replicate 1 = 2953; Renilla reference signal, replicate 2 = 8706
Nmdar1 (GeneID 40665) [DRSC12071] | firefly Hh reporter signal, replicate 1 = 1.88e5; Renilla reference signal, replicate 1 = 4755
Nmdar1 (GeneID 40665) [DRSC12356] | firefly Hh reporter signal, replicate 1 = 49479; firefly Hh reporter signal, replicate 2 = 99778; Renilla reference signal, replicate 1 = 2033; Renilla reference signal, replicate 2 = 2914
Polr1D + DCTN6-p27 [DRSC02094] | firefly Hh reporter signal, replicate 1 = 57372; firefly Hh reporter signal, replicate 2 = 40116; Renilla reference signal, replicate 1 = 1756; Renilla reference signal, replicate 2 = 4625
Eip78C (GeneID 40345) [DRSC11864] | firefly Hh reporter signal, replicate 1 = 50664; firefly Hh reporter signal, replicate 2 = 44448; Renilla reference signal, replicate 1 = 2304; Renilla reference signal, replicate 2 = 1529
wat (GeneID 43420) [DRSC14854] | firefly Hh reporter signal, replicate 1 = 1.65e5; firefly Hh reporter signal, replicate 2 = 1.44e5; Renilla reference signal, replicate 1 = 6596; Renilla reference signal, replicate 2 = 3617
Rab30 (GeneID 33988) [DRSC03137] | firefly Hh reporter signal, replicate 1 = 1.60e5; firefly Hh reporter signal, replicate 2 = 83243; Renilla reference signal, replicate 1 = 3984; Renilla reference signal, replicate 2 = 7763
vtd (GeneID 3354896) [DRSC20839] | firefly Hh reporter signal, replicate 1 = 2.92e5; firefly Hh reporter signal, replicate 2 = 86246; Renilla reference signal, replicate 1 = 8269; Renilla reference signal, replicate 2 = 1859
bma (GeneID 5740442) [DRSC09896] | firefly Hh reporter signal, replicate 1 = 26378; firefly Hh reporter signal, replicate 2 = 34352; firefly Hh reporter signal, replicate 3 = 50070; Renilla reference signal, replicate 1 = 3549; Renilla reference signal, replicate 2 = 3289
bma (GeneID 5740442) [DRSC10164] | firefly Hh reporter signal, replicate 1 = 23680; firefly Hh reporter signal, replicate 2 = 54391; firefly Hh reporter signal, replicate 3 = 58418; Renilla reference signal, replicate 1 = 5312; Renilla reference signal, replicate 2 = 3707
CG33922 (GeneID 3771945) [DRSC00050] | firefly Hh reporter signal, replicate 1 = 7.24e5; firefly Hh reporter signal, replicate 2 = 3.07e5; Renilla reference signal, replicate 1 = 40618; Renilla reference signal, replicate 2 = 12528
FarO (GeneID 45707) [DRSC18475] | firefly Hh reporter signal, replicate 1 = 1.39e5; firefly Hh reporter signal, replicate 2 = 3.03e5; Renilla reference signal, replicate 1 = 5508; Renilla reference signal, replicate 2 = 12037

3 neighbouring entries already listed, for reference:
CG15445 (GeneID 33094) [DRSC20517] | firefly Hh reporter signal, replicate 1 = 53257; firefly Hh reporter signal, replicate 2 = 83145; Renilla reference signal, replicate 1 = 1493; Renilla reference signal, replicate 2 = 2192
AANATL7 (GeneID 31236) [DRSC18616] | firefly Hh reporter signal, replicate 1 = 81000; firefly Hh reporter signal, replicate 2 = 2.03e5; Renilla reference signal, replicate 1 = 2953; Renilla reference signal, replicate 2 = 8706
Nmdar1 (GeneID 40665) [DRSC12071] | firefly Hh reporter signal, replicate 1 = 1.88e5; Renilla reference signal, replicate 1 = 4755

Additional entries follow.
Nedd4 (GeneID 39958) [DRSC11234] | firefly Hh reporter signal, replicate 1 = 91189; Renilla reference signal, replicate 1 = 1408; Renilla reference signal, replicate 2 = 2864
CG42500 (GeneID 50032) [DRSC14822] | firefly Hh reporter signal, replicate 1 = 93846; firefly Hh reporter signal, replicate 2 = 1.13e5; Renilla reference signal, replicate 1 = 3676; Renilla reference signal, replicate 2 = 3382
CG9008 (GeneID 34779) [DRSC01889] | firefly Hh reporter signal, replicate 1 = 64306; firefly Hh reporter signal, replicate 2 = 43047; Renilla reference signal, replicate 1 = 2882; Renilla reference signal, replicate 2 = 2242
tty (GeneID 33109) [DRSC20588] | firefly Hh reporter signal, replicate 1 = 1.38e5; firefly Hh reporter signal, replicate 2 = 1.23e5; Renilla reference signal, replicate 1 = 3339; Renilla reference signal, replicate 2 = 3162
CG31249 (GeneID 42129) [DRSC16248] | firefly Hh reporter signal, replicate 1 = 5.59e5; firefly Hh reporter signal, replicate 2 = 1.31e5; Renilla reference signal, replicate 1 = 24368; Renilla reference signal, replicate 2 = 3271
CG5388 (GeneID 42612) [DRSC15789] | firefly Hh reporter signal, replicate 1 = 4.72e5; firefly Hh reporter signal, replicate 2 = 2.18e5; Renilla reference signal, replicate 1 = 21559; Renilla reference signal, replicate 2 = 5813
CG8526 (GeneID 41208) [DRSC16438] | firefly Hh reporter signal, replicate 1 = 98832; firefly Hh reporter signal, replicate 2 = 1.74e5; Renilla reference signal, replicate 1 = 3033; Renilla reference signal, replicate 2 = 5192
CG17928 (GeneID 35009) [DRSC02644] | firefly Hh reporter signal, replicate 1 = 1.17e5; firefly Hh reporter signal, replicate 2 = 59603; Renilla reference signal, replicate 1 = 3169; Renilla reference signal, replicate 2 = 5344
mus301 (GeneID 38905) [DRSC10939] | firefly Hh reporter signal, replicate 1 = 55835; firefly Hh reporter signal, replicate 2 = 58784; Renilla reference signal, replicate 1 = 7586; Renilla reference signal, replicate 2 = 2651
CG13814 (retired record) (GeneID 40223) [DRSC10069] | firefly Hh reporter signal, replicate 1 = 1.04e5; firefly Hh reporter signal, replicate 2 = 1.41e5; Renilla reference signal, replicate 1 = 3527; Renilla reference signal, replicate 2 = 4611
Dph2 (GeneID 41802) [DRSC16222] | firefly Hh reporter signal, replicate 1 = 1.10e5; firefly Hh reporter signal, replicate 2 = 70280; Renilla reference signal, replicate 1 = 4764; Renilla reference signal, replicate 2 = 3424
sog (GeneID 32498) [DRSC20379] | firefly Hh reporter signal, replicate 1 = 41649; firefly Hh reporter signal, replicate 2 = 1.24e5; Renilla reference signal, replicate 1 = 1376; Renilla reference signal, replicate 2 = 7099
CG42663 (GeneID 36403) [DRSC06158] | firefly Hh reporter signal, replicate 1 = 62901; firefly Hh reporter signal, replicate 2 = 52210; Renilla reference signal, replicate 1 = 2024; Renilla reference signal, replicate 2 = 3969
CG42663 (GeneID 36403) [DRSC06404] | firefly Hh reporter signal, replicate 1 = 99635; firefly Hh reporter signal, replicate 2 = 6.76e5; firefly Hh reporter signal, replicate 3 = 87568; Renilla reference signal, replicate 1 = 2560; Renilla reference signal, replicate 2 = 38746
